These are yes or no findings as the source states them, for the method shown. Binding seen in cells or lysates may run through a third protein. Binding calls can cover weak binding; strength is not graded here. Tags and fused reporters may be left off the sequences shown.
Key:
[1] = biological target: GST-Brg1-Flag deletion mutant, C-terminal domain; test: pull-down; 10 ug GST fusion protein (full length or deletion mutant) with glutathione-agarose beads and precleared lysate of HeLa cells expressing Brg1-V5 or Letmd1-V5; 6 hours at 4°C; four washes; blot with anti-V5 or anti-Flag; only the target purified
[2] = biological target: GST-Brg1-Flag deletion mutant, N-terminal domain; test: as above

binding [1]: binds
binding [2]: binds
B1: Letmd1-V5, expressed in HeLa cells (protein, UniProt Q924L1 1-360)
chain: MALSRVCWARAALWGSTVAPGPFVTRRLQLGRSGPAWRAPRSSKLHLSPKADVKNLISYVVTKTRAINGSYHRFLGRHFPRFYALYTTFMKGIQMLWADGKKARRIKADMWKQNLKFHQLSYREMEHLRQFRRDITKCLFVGLISIPPFANYLVFLLMYLFPRQLLVKHFWTPKQQIDFLDVYHGLRRRSHSEVITHLRRASTFVSHEKLRRQLTDLCTKVQSGTHPAAQDVLALRDCFSTYPLGFSQLQASQMRALSQAMLLTPYLPPPLLRQRLKSHTTVIHQLDRALAKLGIGQLTAQEVKSACYLRGLNSTHIADDRCRAWLGEWLHISCSLKEPELSLLLHNVVLLSTNYLETRR

Source: article PMC12003058
